Assay results as given in article PMC3676459.
Results are given in words; binding and its absence hold for the method and conditions named. In cells and extracts the contact can be indirect. Some results given as binding are weak or reduced against the parent protein; the word gives no strength. For part of these data: Where a sequence is shown, tags or fusion partners need not be part of it.

The chains behind the UniProt entries cited, without tags or fusion partners. Where a name states a change or a piece, a line headed by the entry shows the natural chain unless it says otherwise. A line that says so, or that is headed by a name, gives the form on record, which may keep a tag or linker. Residues count along the entry.
UniProt Q7TQN4: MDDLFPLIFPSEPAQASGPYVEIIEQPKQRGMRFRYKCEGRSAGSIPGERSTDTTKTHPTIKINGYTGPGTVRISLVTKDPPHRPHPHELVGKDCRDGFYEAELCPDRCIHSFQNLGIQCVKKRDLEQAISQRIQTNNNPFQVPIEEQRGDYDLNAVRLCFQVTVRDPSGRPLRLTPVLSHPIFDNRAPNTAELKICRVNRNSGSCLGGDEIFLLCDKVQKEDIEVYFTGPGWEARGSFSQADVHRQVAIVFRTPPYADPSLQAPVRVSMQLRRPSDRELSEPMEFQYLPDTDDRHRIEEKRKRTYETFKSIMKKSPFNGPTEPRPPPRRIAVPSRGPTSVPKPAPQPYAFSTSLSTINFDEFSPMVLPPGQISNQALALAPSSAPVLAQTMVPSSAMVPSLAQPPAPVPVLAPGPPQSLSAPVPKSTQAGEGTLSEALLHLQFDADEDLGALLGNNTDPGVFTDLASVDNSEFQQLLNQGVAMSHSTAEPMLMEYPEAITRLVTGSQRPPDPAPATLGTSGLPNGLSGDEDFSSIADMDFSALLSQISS
UniProt P11142: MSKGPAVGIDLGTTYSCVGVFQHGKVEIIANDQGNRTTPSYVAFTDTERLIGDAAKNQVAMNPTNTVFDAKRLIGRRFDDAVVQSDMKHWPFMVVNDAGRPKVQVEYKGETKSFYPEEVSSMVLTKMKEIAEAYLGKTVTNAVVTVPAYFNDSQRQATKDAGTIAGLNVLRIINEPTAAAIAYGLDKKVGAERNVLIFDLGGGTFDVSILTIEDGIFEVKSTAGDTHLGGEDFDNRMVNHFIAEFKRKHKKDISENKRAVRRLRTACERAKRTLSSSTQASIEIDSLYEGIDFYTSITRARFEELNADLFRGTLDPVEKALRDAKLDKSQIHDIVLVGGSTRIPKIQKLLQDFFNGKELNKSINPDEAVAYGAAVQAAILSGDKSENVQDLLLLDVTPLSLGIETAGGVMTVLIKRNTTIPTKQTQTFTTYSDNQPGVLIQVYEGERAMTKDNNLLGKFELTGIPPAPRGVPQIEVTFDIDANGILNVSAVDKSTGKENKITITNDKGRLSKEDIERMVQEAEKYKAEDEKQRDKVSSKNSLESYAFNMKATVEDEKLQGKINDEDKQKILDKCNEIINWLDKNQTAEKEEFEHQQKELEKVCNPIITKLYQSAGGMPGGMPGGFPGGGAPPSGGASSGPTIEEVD
myc-tagged Hsc70 Phe68mut (pcDNA3.1(+)c-myc-HSC70mut) (P11142, form named): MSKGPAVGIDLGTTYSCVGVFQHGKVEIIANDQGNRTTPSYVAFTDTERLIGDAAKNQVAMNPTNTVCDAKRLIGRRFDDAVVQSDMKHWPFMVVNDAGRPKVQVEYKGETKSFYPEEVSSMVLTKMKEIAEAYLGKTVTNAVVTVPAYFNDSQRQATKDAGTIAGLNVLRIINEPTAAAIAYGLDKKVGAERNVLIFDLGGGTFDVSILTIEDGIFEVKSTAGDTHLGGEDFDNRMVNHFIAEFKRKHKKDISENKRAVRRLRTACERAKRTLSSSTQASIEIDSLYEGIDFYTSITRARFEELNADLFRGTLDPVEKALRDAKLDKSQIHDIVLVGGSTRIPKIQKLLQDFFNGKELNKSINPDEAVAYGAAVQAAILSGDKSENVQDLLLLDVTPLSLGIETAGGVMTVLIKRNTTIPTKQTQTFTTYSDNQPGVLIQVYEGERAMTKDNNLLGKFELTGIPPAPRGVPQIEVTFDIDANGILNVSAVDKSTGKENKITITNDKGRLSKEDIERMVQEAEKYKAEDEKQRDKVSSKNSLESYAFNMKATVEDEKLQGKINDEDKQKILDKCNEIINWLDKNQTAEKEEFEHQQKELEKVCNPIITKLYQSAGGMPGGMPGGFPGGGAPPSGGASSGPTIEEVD
UniProt P63018: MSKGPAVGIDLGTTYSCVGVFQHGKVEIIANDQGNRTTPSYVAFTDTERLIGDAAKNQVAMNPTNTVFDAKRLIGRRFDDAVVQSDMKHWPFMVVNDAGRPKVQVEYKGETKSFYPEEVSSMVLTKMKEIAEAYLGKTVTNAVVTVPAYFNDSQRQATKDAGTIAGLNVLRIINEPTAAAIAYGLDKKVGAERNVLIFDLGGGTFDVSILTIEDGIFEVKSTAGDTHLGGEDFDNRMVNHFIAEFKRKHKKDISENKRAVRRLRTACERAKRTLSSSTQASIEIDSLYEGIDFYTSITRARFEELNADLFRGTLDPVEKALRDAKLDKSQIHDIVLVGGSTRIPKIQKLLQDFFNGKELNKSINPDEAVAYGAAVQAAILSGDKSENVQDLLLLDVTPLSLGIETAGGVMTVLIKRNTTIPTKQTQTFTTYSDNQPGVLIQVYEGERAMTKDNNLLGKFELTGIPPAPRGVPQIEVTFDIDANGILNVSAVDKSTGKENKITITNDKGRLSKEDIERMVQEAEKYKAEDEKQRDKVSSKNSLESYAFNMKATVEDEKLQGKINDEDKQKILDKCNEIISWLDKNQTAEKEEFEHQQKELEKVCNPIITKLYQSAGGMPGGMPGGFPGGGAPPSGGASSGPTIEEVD
UniProt Q63369, residues 1-483: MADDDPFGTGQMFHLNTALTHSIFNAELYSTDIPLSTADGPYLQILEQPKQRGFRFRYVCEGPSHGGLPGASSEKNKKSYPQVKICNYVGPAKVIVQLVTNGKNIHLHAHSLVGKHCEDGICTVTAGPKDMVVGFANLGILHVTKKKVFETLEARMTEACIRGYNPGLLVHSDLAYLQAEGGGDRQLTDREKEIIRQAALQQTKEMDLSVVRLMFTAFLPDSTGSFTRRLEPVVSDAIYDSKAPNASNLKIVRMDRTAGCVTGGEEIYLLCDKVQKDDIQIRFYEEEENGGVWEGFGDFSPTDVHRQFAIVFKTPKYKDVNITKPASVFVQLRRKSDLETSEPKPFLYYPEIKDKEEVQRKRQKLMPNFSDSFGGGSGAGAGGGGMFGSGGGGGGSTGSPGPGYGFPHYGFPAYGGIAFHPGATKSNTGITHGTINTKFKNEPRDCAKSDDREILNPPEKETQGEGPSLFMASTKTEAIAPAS
UniProt Q04206: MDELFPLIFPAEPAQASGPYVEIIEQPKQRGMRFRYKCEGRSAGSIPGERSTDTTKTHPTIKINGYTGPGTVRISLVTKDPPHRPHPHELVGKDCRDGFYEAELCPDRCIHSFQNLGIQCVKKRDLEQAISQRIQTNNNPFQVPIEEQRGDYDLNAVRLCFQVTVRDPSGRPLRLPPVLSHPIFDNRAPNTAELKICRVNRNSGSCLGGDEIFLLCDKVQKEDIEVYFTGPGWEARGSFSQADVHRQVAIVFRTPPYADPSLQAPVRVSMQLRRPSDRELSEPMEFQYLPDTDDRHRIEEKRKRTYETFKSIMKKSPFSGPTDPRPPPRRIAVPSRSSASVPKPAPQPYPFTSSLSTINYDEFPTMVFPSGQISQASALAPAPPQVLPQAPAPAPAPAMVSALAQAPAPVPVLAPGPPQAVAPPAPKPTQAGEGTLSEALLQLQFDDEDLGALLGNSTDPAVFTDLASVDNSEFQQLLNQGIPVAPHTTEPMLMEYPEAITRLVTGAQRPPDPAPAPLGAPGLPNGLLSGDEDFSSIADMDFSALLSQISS

Assays:
[1] = target: NF-κB p65 (endogenous, cultured hippocampal neurons) (rat (endogenous in hippocampal neurons)) (UniProt Q7TQN4); experiment: proximity ligation; in situ PLA (Duolink II) on fixed (4% PFA), permeabilised cultured hippocampal neurons with two primary antibodies; spots counted in neurites, cell bodies and nuclei; also after treatment with DSG and glutamate (nuclear signals reduced with DSG)
[2] = target: myc-tagged Hsc70 (pcDNA3.1(+)c-myc-HSC70) (UniProt P11142); experiment: co-IP; lysates of co-transfected HEK293FT cells, IP with anti-c-Myc antibody, without cross-linker, in presence of 10 µM or 100 µM ATP, 4°C; blot anti-Flag
[3] = target: T1, myc-tagged IκBε (pCMV c-myc-Iκε) (UniProt O00221); experiment: co-IP; lysates of co-transfected HEK293FT cells, IP with anti-c-Myc antibody, without cross-linker and without ATP, 4°C (Figure 2B; samples without cross-linker of Figure 1C); blot anti-Flag
T1 sequence: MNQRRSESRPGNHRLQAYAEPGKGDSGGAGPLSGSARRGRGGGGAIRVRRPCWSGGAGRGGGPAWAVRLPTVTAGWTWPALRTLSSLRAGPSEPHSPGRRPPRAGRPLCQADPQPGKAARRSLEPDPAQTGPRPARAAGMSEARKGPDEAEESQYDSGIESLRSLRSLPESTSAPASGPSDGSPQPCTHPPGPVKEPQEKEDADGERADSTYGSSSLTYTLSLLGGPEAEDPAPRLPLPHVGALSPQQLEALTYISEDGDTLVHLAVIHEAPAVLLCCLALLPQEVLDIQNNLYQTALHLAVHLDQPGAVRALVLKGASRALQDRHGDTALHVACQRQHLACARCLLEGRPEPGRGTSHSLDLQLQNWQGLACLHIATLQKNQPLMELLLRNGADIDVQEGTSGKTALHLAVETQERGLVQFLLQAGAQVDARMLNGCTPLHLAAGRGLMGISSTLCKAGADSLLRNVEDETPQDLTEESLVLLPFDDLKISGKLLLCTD

[4] = target: myc-tagged Hsc70 Phe68mut (pcDNA3.1(+)c-myc-HSC70mut) (UniProt P11142); experiment: co-IP; lysates of co-transfected HEK293FT cells, IP with rabbit anti-c-Myc antibody on protein A sepharose for 2 h, in presence of cross-linker (0.5 mg/ml DSP), with or without 3.3 mg axon enriched porcine brain extract and with or without ATP; lysis buffer 50 mM HEPES, 150 mM NaCl, 1% NP-40, pH …; blot anti-Flag
[5] = target: myc-tagged Hsc70 (pcDNA3.1(+)c-myc-HSC70) (UniProt P11142); experiment: as above
[6] = target: T1, myc-tagged IκBε (pCMV c-myc-Iκε); experiment: as above
[7] = target: myc-tagged Hsc70 (pcDNA3.1(+)c-myc-HSC70) (UniProt P11142); experiment: condition: only without cross-linker and without ATP at 4°C; co-IP; lysates of co-transfected HEK293FT cells, IP with anti-c-Myc antibody, without cross-linker and without ATP, 4°C (Figure 2B; samples without cross-linker of Figure 1C); blot anti-Flag
[8] = target: myc-tagged Hsc70 (pcDNA3.1(+)c-myc-HSC70) (UniProt P11142); experiment: co-IP; lysates of co-transfected HEK293FT cells, IP with anti-c-Myc antibody performed at 37°C, without cross-linker, even without ATP; blot anti-Flag

| Substance | binding [1] | binding [2] | binding [3] | binding [4] | binding [5] | binding [6] | binding [7] | binding [8] |
| --- | --- | --- | --- | --- | --- | --- | --- | --- |
| Hsc70 (endogenous, cultured hippocampal neurons) (from UniProt P63018 1-646) | binds |  |  |  |  |  |  |  |
| NF-κB p50 (endogenous, cultured hippocampal neurons) (from UniProt Q63369 1-483) | binds |  |  |  |  |  |  |  |
| flag-tagged NF-κB p65 (pEF-FLAGpGKpuro p65WT) (from UniProt Q04206 1-551) |  | binds weakly | no binding (condition: without cross-linker) | no binding | binds | binds | no binding | binds |
